The values below are quoted from earlier work in patent US5696153A, “Therapeutic regimen for treating patients” (priority 1996, dated 1997).

For this data set the following is noted: same dose, twenty-one day schedule; cited from earlier work.

In the case of `CC(=O)O[C@H]1C(=O)[C@@]2(C)[C@H]([C@H](OC(=O)c3ccccc3)[C@]3(O)C[C@H](OC(=O)[C@H](O)[C@@H](NC(=O)c4ccccc4)c4ccccc4)C(C)=C1C3(C)C)[C@]1(OC(C)=O)CO[C@@H]1C[C@@H]2O` [taxol], the “effectiveness and toxicity, three hour vs twenty-four hour infusion” value was “equal effectiveness and less drug toxicity”.
